These results are taken from paper PMC11438954 (Nature Communications, 2024).

Amino acid sequences for entries named in this document (tags omitted).
UniProt P35499, whole entry P1158S: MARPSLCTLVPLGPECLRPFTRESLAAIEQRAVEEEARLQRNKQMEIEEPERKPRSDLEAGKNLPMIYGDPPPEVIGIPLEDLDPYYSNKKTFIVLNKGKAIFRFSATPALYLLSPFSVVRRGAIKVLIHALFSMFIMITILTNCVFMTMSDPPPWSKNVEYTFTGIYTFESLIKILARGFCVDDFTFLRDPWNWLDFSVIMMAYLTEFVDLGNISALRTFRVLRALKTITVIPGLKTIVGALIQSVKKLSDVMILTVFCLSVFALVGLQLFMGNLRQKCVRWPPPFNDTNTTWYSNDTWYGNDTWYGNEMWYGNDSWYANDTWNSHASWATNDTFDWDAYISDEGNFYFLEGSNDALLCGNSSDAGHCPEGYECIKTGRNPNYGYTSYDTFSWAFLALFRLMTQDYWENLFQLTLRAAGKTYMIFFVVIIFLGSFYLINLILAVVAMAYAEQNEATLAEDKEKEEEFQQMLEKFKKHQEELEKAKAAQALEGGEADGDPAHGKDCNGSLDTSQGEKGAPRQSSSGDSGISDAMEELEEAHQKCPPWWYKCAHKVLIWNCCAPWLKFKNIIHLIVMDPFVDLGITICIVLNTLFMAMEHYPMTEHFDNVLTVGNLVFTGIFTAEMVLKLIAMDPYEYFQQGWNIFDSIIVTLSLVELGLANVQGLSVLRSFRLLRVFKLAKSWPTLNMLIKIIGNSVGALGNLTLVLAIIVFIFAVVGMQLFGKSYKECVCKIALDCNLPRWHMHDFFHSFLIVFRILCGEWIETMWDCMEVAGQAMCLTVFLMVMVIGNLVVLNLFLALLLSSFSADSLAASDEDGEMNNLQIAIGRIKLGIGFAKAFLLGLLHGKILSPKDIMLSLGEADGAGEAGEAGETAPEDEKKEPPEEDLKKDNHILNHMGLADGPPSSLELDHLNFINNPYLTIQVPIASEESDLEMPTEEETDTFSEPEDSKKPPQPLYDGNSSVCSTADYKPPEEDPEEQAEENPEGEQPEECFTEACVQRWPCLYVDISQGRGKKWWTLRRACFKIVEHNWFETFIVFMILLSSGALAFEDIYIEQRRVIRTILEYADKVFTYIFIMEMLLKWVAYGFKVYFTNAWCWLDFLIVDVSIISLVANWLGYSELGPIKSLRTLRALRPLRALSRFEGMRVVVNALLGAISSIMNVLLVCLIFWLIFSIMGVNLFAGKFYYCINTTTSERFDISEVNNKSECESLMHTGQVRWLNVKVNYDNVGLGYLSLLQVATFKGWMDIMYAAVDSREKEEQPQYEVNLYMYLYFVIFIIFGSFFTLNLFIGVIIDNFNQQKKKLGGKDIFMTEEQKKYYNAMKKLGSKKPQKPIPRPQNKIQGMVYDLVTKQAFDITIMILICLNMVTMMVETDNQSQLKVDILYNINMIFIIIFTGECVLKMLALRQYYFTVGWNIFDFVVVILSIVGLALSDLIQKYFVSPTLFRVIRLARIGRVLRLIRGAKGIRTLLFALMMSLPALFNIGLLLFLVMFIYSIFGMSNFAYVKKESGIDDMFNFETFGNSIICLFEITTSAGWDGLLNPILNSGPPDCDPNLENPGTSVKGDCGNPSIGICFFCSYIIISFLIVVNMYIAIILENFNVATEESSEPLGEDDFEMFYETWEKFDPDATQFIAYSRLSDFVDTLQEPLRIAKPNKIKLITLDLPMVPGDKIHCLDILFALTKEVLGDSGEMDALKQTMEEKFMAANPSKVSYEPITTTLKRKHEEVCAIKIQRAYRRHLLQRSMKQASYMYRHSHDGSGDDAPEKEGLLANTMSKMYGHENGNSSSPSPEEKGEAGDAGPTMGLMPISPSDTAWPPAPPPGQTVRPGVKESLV

This assay has as its target T1, hNav1.4 (Homo sapiens, UniProt P35499, P1158S).
T1 construct: gene SCN4A

For the molecule `Nc1nc2ccc(OC(F)(F)F)cc2s1` [riluzole, 2-amino-6-(trifluoromethoxy)benzothiazole], the “whole-cell patch clamp (SSI shift and late sodium current) at 1 and 5 μM” value is recorded as “stabilised the inactivation in this variant, significantly shifting the SSI curve to more negative potentials, compared to vehicle”.
